In the assay the target is T1, Trib2-Luciferase (Luc-Trib2) fusion (Homo sapiens, UniProt Q92519).
T1 sequence (Q92519 with tags, fused parts or gaps): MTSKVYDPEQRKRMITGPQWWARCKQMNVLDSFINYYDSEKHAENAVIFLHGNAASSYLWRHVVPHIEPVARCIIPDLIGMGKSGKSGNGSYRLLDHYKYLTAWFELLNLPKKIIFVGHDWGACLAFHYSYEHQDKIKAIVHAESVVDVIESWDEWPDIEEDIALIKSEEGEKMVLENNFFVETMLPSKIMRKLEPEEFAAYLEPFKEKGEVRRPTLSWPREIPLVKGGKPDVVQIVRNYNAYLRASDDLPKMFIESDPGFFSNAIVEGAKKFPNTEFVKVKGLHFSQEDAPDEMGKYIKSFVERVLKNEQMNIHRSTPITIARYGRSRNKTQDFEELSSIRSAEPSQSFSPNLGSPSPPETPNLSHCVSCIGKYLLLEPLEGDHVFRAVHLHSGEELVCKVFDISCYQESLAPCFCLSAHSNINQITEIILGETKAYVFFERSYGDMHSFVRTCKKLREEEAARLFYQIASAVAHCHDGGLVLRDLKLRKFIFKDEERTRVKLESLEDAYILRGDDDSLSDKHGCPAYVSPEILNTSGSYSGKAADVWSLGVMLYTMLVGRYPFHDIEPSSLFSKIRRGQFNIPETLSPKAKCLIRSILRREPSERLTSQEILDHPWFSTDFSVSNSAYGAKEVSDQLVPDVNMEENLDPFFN
The experiment in a line: cell-based. The settings on record: HFF, read-out: Luciferase activity (%).

Amino acid sequences for entries named in this document (tags omitted). A change or cut given only in a name is not applied to a line headed by its entry.
UniProt Q92519: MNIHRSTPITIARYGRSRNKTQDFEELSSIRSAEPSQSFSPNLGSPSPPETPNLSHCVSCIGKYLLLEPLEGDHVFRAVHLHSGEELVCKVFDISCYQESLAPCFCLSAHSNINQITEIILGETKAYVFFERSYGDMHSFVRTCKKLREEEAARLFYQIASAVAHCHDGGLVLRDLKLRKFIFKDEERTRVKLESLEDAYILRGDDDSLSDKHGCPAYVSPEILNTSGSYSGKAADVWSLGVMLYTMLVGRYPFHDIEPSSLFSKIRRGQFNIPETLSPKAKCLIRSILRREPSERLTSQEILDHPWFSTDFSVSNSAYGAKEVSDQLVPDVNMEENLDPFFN

The structures appear in SMILES notation.

For the compound `C[C@@H](O)[C@H]1C(=O)N2C(C(=O)OCOC(=O)C(C)(C)C)=C(SC3CN(C4=NCCS4)C3)[C@H](C)[C@H]12` [Tebipenem pivoxil], the activity at 10 µM worked out at 100%.

The values are drawn from patent US12721838B2 (Henry Ford Health System, priority 2020, dated 2026).
